The values that follow come from PubChem BioAssay AID250 (DTP/NCI, 2004).

Experiment [1] has as its system BDF1 mice, L1210 leukemia sc, survival T/C. In words: NCI In Vivo Anticancer Drug Screen. Data for tumor model L1210 Leukemia (subcutaneous) in B6D2F1 (BDF1) mice. As to conditions: T/C endpoint: median survival time, higher T/C = longer survival. As to the method: (§1) The antitumor activity of compounds was measured in mice bearing transplantable tumors. Survival or tumor size were measured and the results are expressed as the measurement made in the treated group (T) divided by the measurement made in the vehicle treated control group (C). The tumor model used in this assay is L1210 Leukemia (subcutaneous) in B6D2F1 (BDF1) mice

For experiment [2], the system named is BDF1 mice, L1210 leukemia sc. The description is as above. As to conditions: T/C endpoint: median survival time, higher T/C = longer survival. As to the method: as §1
[3] abbreviates: dose: 14.0 mg/kg/injection, schedule: Q01DX Z (sc), vehicle: saline.
The mark [4] stands for this setting: dose: 23.0 mg/kg/injection, schedule: Q01DX Z (sc), vehicle: saline.
[5] abbreviates: dose: 39.0 mg/kg/injection, schedule: Q01DX Z (sc), vehicle: saline.
[6] abbreviates: dose: 65.0 mg/kg/injection, schedule: Q01DX Z (sc), vehicle: saline.
[7] abbreviates: dose: 108.0 mg/kg/injection, schedule: Q01DX Z (sc), vehicle: saline.
[8] abbreviates: dose: 180.0 mg/kg/injection, schedule: Q01DX Z (sc), vehicle: saline.
The mark [9] stands for this setting: dose: 3.0 mg/kg/injection, schedule: Q01DX Z (sc), vehicle: saline.
Where [10] appears, read: dose: 5.0 mg/kg/injection, schedule: Q01DX Z (sc), vehicle: saline.
Where [11] appears, read: dose: 8.4 mg/kg/injection, schedule: Q01DX Z (sc), vehicle: saline.

The structures appear in SMILES notation. The list does not hold the whole screen: its compounds were picked by chemical class. Not every dose and run of a compound is shown. T/C gives the treated animals as a percentage of the vehicle group. Where survival is the endpoint, this PubChem deposit counts one and a half times the control or more as active, and values a quarter to a half above the control carry no call in these data; other NCI protocols may use other cut-offs. Some entries show no survivor count and are marked so; the dose need not have been tolerated. Schedule codes are those of the source, read here as Q, the interval in days (D) or hours (H), X, the number of doses. Some schedule codes hold Z or #, which are not explained here. Some entries hold several experiments; the values are given in rising order.

With `NC1CCCCC1.NP(=O)(O)N(CCCl)CCCl`, the T/C in experiment [1] (dose: 8.4 mg/kg/injection, schedule: Q01DX Z (ip), vehicle: saline) is 86 % of control [survivor count not shown]; in experiment [1] (dose: 14.0 mg/kg/injection, schedule: Q01DX Z (ip), vehicle: saline), 91 % of control [survivor count not shown]; in experiment [1] (setting [3]), 106 % of control [survivor count not shown]; in experiment [1] (dose: 23.0 mg/kg/injection, schedule: Q01DX Z (ip), vehicle: saline) it was 95 % of control [survivor count not shown]; in experiment [1] (setting [4]) it was 100 [survivor count not shown] and 112 % of control [survivor count not shown]; in experiment [1] (dose: 23.0 mg/kg/injection, schedule: Q02DX Z (sc), vehicle: saline), 111 % of control [survivor count not shown]. The T/C in experiment [1] (dose: 39.0 mg/kg/injection, schedule: Q01DX Z (ip), vehicle: saline) is 104 % of control [survivor count not shown]; in experiment [1] (setting [5]), 113 % of control [survivor count not shown]; in experiment [1] (dose: 39.0 mg/kg/injection, schedule: Q02DX Z (sc), vehicle: saline) it was 122 % of control [survivor count not shown]; in experiment [1] (dose: 39.0 mg/kg/injection, schedule: Q## X Z (sc), vehicle: saline), 116 % of control [survivor count not shown]; in experiment [1] (dose: 65.0 mg/kg/injection, schedule: Q01DX001 (sc), vehicle: saline), 122 % of control [survivor count not shown]; in experiment [1] (dose: 65.0 mg/kg/injection, schedule: Q01DX Z (ip), vehicle: saline), 121 % of control [survivor count not shown]. Also, the T/C in experiment [1] (dose: 65.0 mg/kg/injection, schedule: Q01DX Z (oral), vehicle: saline) was 95 % of control [survivor count not shown]; in experiment [1] (setting [6]), 168 % of control [survivor count not shown]; in experiment [1] (dose: 65.0 mg/kg/injection, schedule: Q## X Z (sc), vehicle: saline), 111 % of control [survivor count not shown]; in experiment [1] (dose: 108.0 mg/kg/injection, schedule: Q01DX Z (ip), vehicle: saline) it was 104 % of control [survivor count not shown]; in experiment [1] (dose: 108.0 mg/kg/injection, schedule: Q01DX Z (oral), vehicle: saline) it was 86 % of control [survivor count not shown]; in experiment [1] (setting [7]) it was 117 % of control [survivor count not shown]. The T/C in experiment [1] (dose: 108.0 mg/kg/injection, schedule: Q02DX Z (sc), vehicle: saline) was 161 % of control [survivor count not shown]; in experiment [1] (dose: 108.0 mg/kg/injection, schedule: Q## X Z (sc), vehicle: saline), 155 % of control [survivor count not shown]; in experiment [1] (dose: 180.0 mg/kg/injection, schedule: Q01DX001 (sc), vehicle: saline), 155 % of control [survivor count not shown]; in experiment [1] (dose: 180.0 mg/kg/injection, schedule: Q01DX Z (oral), vehicle: saline), 95 % of control [survivor count not shown]; in experiment [1] (setting [8]) it was 95 [survivor count not shown] and 118 % of control [survivor count not shown]; in experiment [1] (dose: 180.0 mg/kg/injection, schedule: Q## X Z (sc), vehicle: saline) it was 155 % of control [survivor count not shown]. The T/C in experiment [1] (dose: 300.0 mg/kg/injection, schedule: Q01DX Z (oral), vehicle: saline) was 108 % of control [survivor count not shown]; in experiment [1] (dose: 300.0 mg/kg/injection, schedule: Q01DX Z (sc), vehicle: saline), 106 % of control [survivor count not shown]; in experiment [1] (dose: 300.0 mg/kg/injection, schedule: Q02DX Z (sc), vehicle: saline), 122 % of control [survivor count not shown]; in experiment [2] (setting [4]) it was 127 % of control [survivor count not shown]; in experiment [2] (setting [5]) it was 125 [survivor count not shown] and 133 % of control [survivor count not shown]; in experiment [2] (setting [6]) it was 134 [survivor count not shown] and 144 % of control [survivor count not shown]. Moreover, the T/C is 133 % of control [survivor count not shown] in experiment [2] (dose: 65.0 mg/kg/injection, schedule: Q02DX Z (sc), vehicle: saline); 127 % of control [survivor count not shown] in experiment [2] (dose: 108.0 mg/kg/injection, schedule: Q01DX001 (sc), vehicle: saline); 125 [survivor count not shown] and 144 % of control [survivor count not shown] in experiment [2] (setting [7]); 133 % of control [survivor count not shown] in experiment [2] (setting [8]); 144 % of control [survivor count not shown] in experiment [2] (dose: 180.0 mg/kg/injection, schedule: Q02DX Z (sc), vehicle: saline).

`Cn1c(=O)[nH]cc(N(CCCl)CCCl)c1=O`: the T/C was 112 [survivor count not shown] and 122 % of control [survivor count not shown] in experiment [1] (dose: 5.0 mg/kg/injection, schedule: Q01DX Z (sc), vehicle: methylcellulose (MC)); 122 % of control [survivor count not shown] in experiment [1] (dose: 23.0 mg/kg/injection, schedule: Q01DX Z (sc), vehicle: methylcellulose (MC)); 122 % of control [survivor count not shown] in experiment [1] (dose: 39.0 mg/kg/injection, schedule: Q01DX Z (sc), vehicle: methylcellulose (MC)); 138 % of control [survivor count not shown] in experiment [2] (dose: 8.4 mg/kg/injection, schedule: Q01DX Z (sc), vehicle: methylcellulose (MC)); 127 % of control [survivor count not shown] in experiment [2] (dose: 14.0 mg/kg/injection, schedule: Q01DX Z (sc), vehicle: methylcellulose (MC)).

In the case of `NC(Cc1cccc(N(CCCl)CCCl)c1)C(=O)O` (stereo unspecified), the T/C is 100 % of control [survivor count not shown] in experiment [1] (setting [9]); 122 % of control [survivor count not shown] in experiment [1] (setting [10]); 122 % of control [survivor count not shown] in experiment [1] (setting [3]); 122 % of control [survivor count not shown] in experiment [1] (setting [4]); 122 % of control [survivor count not shown] in experiment [1] (setting [5]); 122 % of control [survivor count not shown] in experiment [1] (setting [6]). For the same compound, the T/C in experiment [1] (setting [7]) was 111 % of control [survivor count not shown]; in experiment [2] (setting [11]), 133 % of control [survivor count not shown].

Consider `NC(Cc1ccccc1N(CCCl)CCCl)C(=O)O` (stereo unspecified), for which the T/C in experiment [1] (setting [10]) is 122 % of control [survivor count not shown]; in experiment [1] (setting [11]), 122 % of control [survivor count not shown]; in experiment [1] (setting [3]) it was 122 % of control [survivor count not shown]; in experiment [1] (setting [4]) it was 122 % of control [survivor count not shown]; in experiment [1] (setting [5]), 122 % of control [survivor count not shown]; in experiment [1] (setting [6]) it was 111 % of control [survivor count not shown]. Besides, the T/C in experiment [2] (dose: 1.8 mg/kg/injection, schedule: Q01DX Z (sc), vehicle: saline) was 133 % of control [survivor count not shown]; in experiment [2] (setting [9]) it was 133 % of control [survivor count not shown].
